Data as given in PubChem BioAssay AID1508597 (Cure First, 2020).
This is an unselected part of the about 2,100 reagents, under one of the conditions tested. 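Calls flag viability under 80% in either arm, not effects specific to rucaparib; the reference for percent is not stated.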 A number with no mark means an inactive call. A reagent listed more than once was tested more than once; the source does not tell the runs apart. Not given: the 100% reference.

- Assay: 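Survival screen with siRNA in ovarian cancer cells derived from patients, with or without rucaparib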 (primary screen)
- Cell system: human ovarian carcinoma lines grown from tumours: OCI-P5x (papillary serous) and OCI-C5x (clear cell)
- Knock-down reagent: siRNA pool against human genes, 1.25 pmol siRNA per well
- Duration: 72 h or 96 h, depending on the cell culture
- Conditions: rucaparib 20 µM (about IC30) or vehicle, present until read-out
- Rucaparib or vehicle: Vehicle
- Cell line: OCI-C5x (clear cell)
- Read-out: 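Luminescent ATP-based viability assay read 72 or 96 h after transfection, depending on culture, given as normalised percent viability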
- Reading the numbers: viability, normalised: higher = more viable cells remaining
- Active means: 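a well counts as a hit if its normalised viability is under 80 percent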
- Calls: active = viability under 80%; inactive = viability 80% or more

no.	gene knocked down	technical replicate	viability, normalised (%)
1	YJU2B	1	69.8 (active)
2	YJU2B	2	59.3 (active)
3	YJU2B	3	59.4 (active)
4	RAC1	1	36.8 (active)
5	RAC1	2	28.1 (active)
6	RAC1	3	27.3 (active)
7	JAK3	1	84.1
8	JAK3	2	60.7 (active)
9	JAK3	3	54.8 (active)
10	PRKD1	1	54.4 (active)
11	PRKD1	2	64.6 (active)
12	PRKD1	3	47.6 (active)
13	ABL2	1	67.5 (active)
14	ABL2	2	54.5 (active)
15	ABL2	3	63.9 (active)
16	TEX14	1	59.9 (active)
17	TEX14	2	46.3 (active)
18	TEX14	3	56.9 (active)
19	PHF14	1	35.5 (active)
20	PHF14	2	30.7 (active)
21	PHF14	3	33.4 (active)
22	GUCY2C	1	52.1 (active)
23	GUCY2C	2	46.2 (active)
24	GUCY2C	3	75.8 (active)
25	NTRK2	1	70.2 (active)
26	NTRK2	2	40.5 (active)
27	NTRK2	3	47.3 (active)
28	ERCC3	1	32.4 (active)
29	ERCC3	1	56.3 (active)
30	ERCC3	2	67.4 (active)
31	ERCC3	2	32.4 (active)
32	ERCC3	3	62.3 (active)
33	ERCC3	3	38.6 (active)
34	VRK3	1	54.6 (active)
35	VRK3	1	69.3 (active)
36	VRK3	2	51.9 (active)
37	VRK3	2	81.4
38	VRK3	3	57.4 (active)
39	VRK3	3	85.5
40	DDR1	1	39.4 (active)
41	DDR1	2	50 (active)
42	DDR1	3	42.4 (active)
43	SUPT16H	1	77.5 (active)
44	SUPT16H	1	50.5 (active)
45	SUPT16H	2	64 (active)
46	SUPT16H	2	40.7 (active)
47	SUPT16H	3	76.6 (active)
48	SUPT16H	3	46.7 (active)
49	ITGB1	1	42.6 (active)
50	ITGB1	2	48.1 (active)
51	ITGB1	3	67.6 (active)
52	SMYD1	1	57 (active)
53	SMYD1	2	52.3 (active)
54	SMYD1	3	61.1 (active)
55	CD40LG	1	50.6 (active)
56	CD40LG	2	49.6 (active)
57	CD40LG	3	48.1 (active)

Not a retest: entries from further up.
no.	gene knocked down	technical replicate	viability, normalised (%)
33	ERCC3	3	38.6 (active)
34	VRK3	1	54.6 (active)
35	VRK3	1	69.3 (active)
36	VRK3	2	51.9 (active)
37	VRK3	2	81.4
38	VRK3	3	57.4 (active)
39	VRK3	3	85.5
40	DDR1	1	39.4 (active)
41	DDR1	2	50 (active)
